“Also recorded” adds a separate entry of the source. At least one structure is not confirmed: it was looked up by name or label, or the drawing left a doubt.
What was measured:
[1] = system: genetically modified mouse embryonic fibroblast; assay: Cell viability in genetically modified mouse embryonic fibroblasts; format: cell-based
cell cycle = assay: Cell cycle analysis by propidium iodide staining; format: cell-based; conditions: treated vs control cells
IMR-05 xenograft = assay: In vivo efficacy in IMR-05 xenograft model; parameters: species or system nude SHC mice; conditions: for tumor response to fractionated therapy: 4 doses of 10 μCi over 12 days; for PARP-1 expression in treated tumors compared to controls: after therapy, residual disease / treated tumors
neuroblastoma cell lines = assay: Cell viability dose response curves in neuroblastoma cell lines; format: cell-based; conditions: Be2 and Be2c; 72 hrs
Description: Two sets of cell viability assays were performed to characterize [^211At]-Compound 1 in neuroblastoma, ovarian, and breast cancer cells. […] The first assay performed was a screen of 25 cell lines at a single concentration of 5 μCi/mL. […] Following treatment cell viability was assessed using a commercially available kit that measures ATP and data was normalized to healthy controls to produce % surviving fraction. […] Cells were treated for 72 hrs followed by evaluation of cell viability. […] Effective concentrations to reduce 50% growth compared to healthy controls were calculated using standard curve fitting software.

[2] = system: neuroblastoma, ovarian, and breast cancer cells; assay: Cell viability screen of 25 cell lines at a single concentration (ATP kit); format: cell-based; conditions: 5 μCi/mL, 72 hrs

## O=C1NCCn2c(-c3ccc([211At])cc3)nc3cccc1c32 [[^211At]-Compound 1]
[1]; loss of PARP-1
  sensitivity of mouse embryonic cell lines: enhanced sensitivity
[1]; loss of non-homologous DNA repair proteins DNA PK or 53BP1
  sensitivity of mouse embryonic cell lines: highly resistant phenotypes
Cell cycle
  cell cycle distribution: accumulation of cells at the G2/M checkpoint
Cell cycle; listed as 211At-Compound 1
  cell cycle distribution: stall in G2M
IMR-05 xenograft
  tumor response to fractionated therapy: sustained tumor regression
  PARP-1 expression in treated tumors compared to controls: PARP-1 up-regulation was also observed
IMR-05 xenograft; listed as 211At-Compound 1
  tumor response to fractionated therapy: complete tumor regression
  PARP-1 expression in treated tumors compared to controls: activates PARP-1 expression; also recorded: upregulation of PARP-1
IMR-05 xenograft; fractionated doses of 10 μCi, 4 times over 12 days
  antitumor activity of fractionated dosing compared to single dose: enhanced antitumor activity
IMR-05 xenograft; single dose, 15 or 30 μCi
  dose dependence of single dose therapy: dose dependent efficacy
  tumor burden, progression and survival after single dose: effective in vivo at reducing the overall tumor burden and increasing time to progression
IMR-05 xenograft; single dose, 15 or 30 μCi, listed as 211At-Compound 1
  tumor burden, progression and survival after single dose: delay in tumor regrowth and progression and improved overall survival
Neuroblastoma cell lines
  sensitivity in dose response curves: highly resistant
[2]
  sensitivity of cells in the screen (% surviving fraction): sensitive

Reference: patent US11161865B2, “Radiolabeled and fluorescent PARP inhibitors for imaging and radiotherapy” (THE TRUSTEES OF THE UNIVERSITY OF PENNSYLVANIA, priority 2017, dated 2021)
